Consider one substance from patent US8455616B2 (National Center for Global Health and Medicine, priority 2007, dated 2013).

This data set in a line: peptide synthesis. The note with it: whole synthesis, 220 nm.

On to LR8DRIHF, for which the “crude HPLC purity” value is 100.0%.
